From paper PMC7819943, “Rice protein-binding microarrays: a tool to detect cis-acting elements near promoter regions in rice”
Some of the results follow.

Molecular target: T1, OsSMF1 (Oryza sativa, UniProt Q6ZLB0 1-436)
T1 sequence: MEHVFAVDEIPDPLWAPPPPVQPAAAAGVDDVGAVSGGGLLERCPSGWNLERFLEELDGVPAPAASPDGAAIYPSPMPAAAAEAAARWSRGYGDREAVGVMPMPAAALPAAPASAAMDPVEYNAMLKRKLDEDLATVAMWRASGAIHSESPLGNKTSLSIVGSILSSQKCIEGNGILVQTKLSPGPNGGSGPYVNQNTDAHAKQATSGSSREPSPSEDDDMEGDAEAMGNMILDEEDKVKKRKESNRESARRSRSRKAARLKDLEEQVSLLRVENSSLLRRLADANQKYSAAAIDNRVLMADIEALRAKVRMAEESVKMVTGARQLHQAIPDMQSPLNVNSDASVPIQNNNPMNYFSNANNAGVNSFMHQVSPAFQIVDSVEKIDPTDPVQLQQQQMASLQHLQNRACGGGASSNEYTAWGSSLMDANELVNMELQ
Assay: protein-binding microarray (RPBM); PBS, 2% BSA, 51.3 ng/ul salmon testes DNA, 50 uM zinc acetate, 200 nM TF, 25 C, 1 h; high values mean tight binding
Settings: protein: recombinant; tags: N-terminal polyhistidine and DsRed monomer fusion (pET32a); chain copies: 2; label: CyDye5-dUTP incorporated in the synthesized complementary strand; 3' TTTTT single-stranded linker to array surface; dsDNA, one strand shown
How it was run: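 Transcription factors were made in E. coli BL21-CodonPlus as N-terminal fusions to a polyhistidine tag and DsRed, then purified on Ni–NTA. After primer extension with Cy5-dUTP and blocking with 2% BSA, a custom Agilent array was exposed for 1 h at 25 °C to 200 nM protein in PBS, 2% BSA, salmon testes DNA and 50 µM zinc acetate. Washed arrays were scanned on an Axon 4000B, and the binding signal is per-feature fluorescence intensity in arbitrary units.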

Sequence	binding signal
GAGAAATACCGAAAATACTGGTTTGACACGCACCAGGATTCGGAGTCACCTAGTGCAG	4110 fluorescence intensity (a.u.)
GCGATTTCACATTCCCATTTGGTAGCGAAGTGATAAATCGCGGAGTCACCTAGTGCAG	3300 fluorescence intensity (a.u.)
CTTCTTCGATTCCCACGTGGCACACCGACGGCGCGATCAACGGAGTCACCTAGTGCAG	13800 fluorescence intensity (a.u.)
TCGGTGACAAGGTTGCCAGGTGGACGGTCAAATCGTTGCGCGGAGTCACCTAGTGCAG	4420 fluorescence intensity (a.u.)
TTGTCATTGTCGTCGAAGTCCTCCTCCTCTGACAGTGGGTCGGAGTCACCTAGTGCAG	3140 fluorescence intensity (a.u.)
TTGACCTGTGCATCTTGCACCGTCATCCCAGCAATGCAAACGGAGTCACCTAGTGCAG	5680 fluorescence intensity (a.u.)
GAATATGAATCACCTACTATCGATAATGTGGTAGGGATGACGGAGTCACCTAGTGCAG	5070 fluorescence intensity (a.u.)
TTATTTTGTGCAGGTTGTATAGGAGTCGCCACGTGCTGAACGGAGTCACCTAGTGCAG	4060 fluorescence intensity (a.u.)
CTCTTCAGCCGGTCGTCAATGATACAACCAGGTCACGCATCGGAGTCACCTAGTGCAG	3950 fluorescence intensity (a.u.)
TACGGCGGCGGGAGGACGGCGAGGGTGATGACGACGTACGCGGAGTCACCTAGTGCAG	4140 fluorescence intensity (a.u.)
GTTTTATCGGTAACCATATTTGTATGGTAATTTCCGTTAACGGAGTCACCTAGTGCAG	3230 fluorescence intensity (a.u.)
GAGCTGCTTGCTCCGGCGAATGTATCAGCGTCAGAGCATTCGGAGTCACCTAGTGCAG	3160 fluorescence intensity (a.u.)
CTGCTCGGCGCCAAGAAGGAGAGAGCCGAGAGGGTGTGGACGGAGTCACCTAGTGCAG	27700 fluorescence intensity (a.u.)
AAGCCTACTGCTGATGTTACCGGGATCCACATACCTCACACGGAGTCACCTAGTGCAG	3510 fluorescence intensity (a.u.)
TTGTCGCGATGTGCCCCTTCTACGGGGTGCCACGTCACATCGGAGTCACCTAGTGCAG	39500 fluorescence intensity (a.u.)
GCAGGCGTCGGTTTCGCGGCTGGCAGCGGCGGCTCGCTCACGGAGTCACCTAGTGCAG	3200 fluorescence intensity (a.u.)
ACTCGTCTGATTATTTTCAGTTGCGTAACTCCCCTAATTACGGAGTCACCTAGTGCAG	3670 fluorescence intensity (a.u.)
TAAGCTCCAAAGCCAGCTATAGCATGAGCTCCAAAATATACGGAGTCACCTAGTGCAG	45700 fluorescence intensity (a.u.)
CTCAAATTTAGATAGTTTGTCAACACTGACATTGATTCTCCGGAGTCACCTAGTGCAG	29000 fluorescence intensity (a.u.)
CCATCCTTGCGCCGCGCCCCGACGAGCCGTCGCCACGTGGCGGAGTCACCTAGTGCAG	21200 fluorescence intensity (a.u.)
AGAACATTACTAAAATTGACCTAGTCATGAAATTCACTCCCGGAGTCACCTAGTGCAG	3310 fluorescence intensity (a.u.)

Sequence	binding signal
TATTAATAGTCAACGTTTAATATTTATAATTAGTGTCCAACGGAGTCACCTAGTGCAG	4430 fluorescence intensity (a.u.)
GAAACAATGGTCAGTAGTCACCAGTTTTGCCCTTAGATGACGGAGTCACCTAGTGCAG	3360 fluorescence intensity (a.u.)
TTAATACAAATCCGTTGCATCACACGAGTCATATGCTAGTCGGAGTCACCTAGTGCAG	5010 fluorescence intensity (a.u.)
CTCCTTAAACTTGATGACTCCTTATATGGACAGTTTTAGACGGAGTCACCTAGTGCAG	3940 fluorescence intensity (a.u.)
TTGCGAATAGTGCTAGAAATACTTACGTGACTTTGCAACACGGAGTCACCTAGTGCAG	3160 fluorescence intensity (a.u.)
AGTAATCTGGAGCGGGAGGTGGGGCTCCACTCCACGTACCCGGAGTCACCTAGTGCAG	3460 fluorescence intensity (a.u.)
TCATCCGCCTCTCACCGATGCGTGTACACAGAGAAAGCGTCGGAGTCACCTAGTGCAG	3750 fluorescence intensity (a.u.)
CATTGCCATGGTTTCACCGAGAGCGTGGGCATCCATGGAACGGAGTCACCTAGTGCAG	3430 fluorescence intensity (a.u.)
GGGCCTTCACGAATCAGGAGCACACGTTGGATGTGTGGCTCGGAGTCACCTAGTGCAG	3280 fluorescence intensity (a.u.)
AGTACCGGTATTCGCGAAGGGAATTGTAAAGTTGGGGTAGCGGAGTCACCTAGTGCAG	11500 fluorescence intensity (a.u.)
AGCCAGTACGCAGCCATAATCAGCAAGAGGATCAGGTTTGCGGAGTCACCTAGTGCAG	3260 fluorescence intensity (a.u.)
CACAACTGAATCCTCTTGACTCACCATTAATGTAGAGGCTCGGAGTCACCTAGTGCAG	4960 fluorescence intensity (a.u.)
ATATTTCACTACCATAGACACTAAAATTGGAGACGTCACTCGGAGTCACCTAGTGCAG	3820 fluorescence intensity (a.u.)
ACCAATAACCTATTGTCCTCTAGTCATACCACGTAATCACCGGAGTCACCTAGTGCAG	4540 fluorescence intensity (a.u.)
GTCTTTCCGAGTGGTGGCGGCGGTGGCTGATCTGCTTGTGCGGAGTCACCTAGTGCAG	3420 fluorescence intensity (a.u.)
CGCCTCCTCCAAGATCTTCCATCGTAGGTCGTCACCCACGCGGAGTCACCTAGTGCAG	3440 fluorescence intensity (a.u.)
GACGGATTGCTTTGTGCATTGTCAATCAGTACATCCTCTTCGGAGTCACCTAGTGCAG	3610 fluorescence intensity (a.u.)
AAACCAGCGACACGTTCCTGTCTTCCTCATATTTACTAAACGGAGTCACCTAGTGCAG	3300 fluorescence intensity (a.u.)
GCAGGTTTGCAAGCGTGGTACGTGTTTACCTAAACTCTTGCGGAGTCACCTAGTGCAG	3360 fluorescence intensity (a.u.)
AAAATGCCATTTCCACCACGTGGGTGAGTGCGCGCGCGGGCGGAGTCACCTAGTGCAG	4270 fluorescence intensity (a.u.)
GCAAAAGATCGAACACGTTGTGTGCGTGTGTGCGCGCGCCCGGAGTCACCTAGTGCAG	3200 fluorescence intensity (a.u.)

2 successive entries out of the list so far, quoted:
Sequence	binding signal
AGTACCGGTATTCGCGAAGGGAATTGTAAAGTTGGGGTAGCGGAGTCACCTAGTGCAG	11500 fluorescence intensity (a.u.)
AGCCAGTACGCAGCCATAATCAGCAAGAGGATCAGGTTTGCGGAGTCACCTAGTGCAG	3260 fluorescence intensity (a.u.)
